These are yes or no findings as the source states them, for the method shown. Binding seen in cells or lysates may run through a third protein. Here binding means that the protein was enriched with, or labelled near, the bait; the list need not be complete.
Target: spinophilin (mouse (endogenous in C57Bl/6 brain)) (UniProt Q6R891)
Test: affinity purification with mass spectrometry; spinophilin immunoprecipitated (goat antibody) from extrasynaptic (S2) and synaptic (S3) fractions of intact and 6-OHDA-lesioned mouse striatum; SDS-PAGE, gel regions digested with trypsin, Orbitrap Velos; spectral counts and XIC areas

Chains of the proteins cited; added tags and fusions are not shown.
UniProt Q6R891: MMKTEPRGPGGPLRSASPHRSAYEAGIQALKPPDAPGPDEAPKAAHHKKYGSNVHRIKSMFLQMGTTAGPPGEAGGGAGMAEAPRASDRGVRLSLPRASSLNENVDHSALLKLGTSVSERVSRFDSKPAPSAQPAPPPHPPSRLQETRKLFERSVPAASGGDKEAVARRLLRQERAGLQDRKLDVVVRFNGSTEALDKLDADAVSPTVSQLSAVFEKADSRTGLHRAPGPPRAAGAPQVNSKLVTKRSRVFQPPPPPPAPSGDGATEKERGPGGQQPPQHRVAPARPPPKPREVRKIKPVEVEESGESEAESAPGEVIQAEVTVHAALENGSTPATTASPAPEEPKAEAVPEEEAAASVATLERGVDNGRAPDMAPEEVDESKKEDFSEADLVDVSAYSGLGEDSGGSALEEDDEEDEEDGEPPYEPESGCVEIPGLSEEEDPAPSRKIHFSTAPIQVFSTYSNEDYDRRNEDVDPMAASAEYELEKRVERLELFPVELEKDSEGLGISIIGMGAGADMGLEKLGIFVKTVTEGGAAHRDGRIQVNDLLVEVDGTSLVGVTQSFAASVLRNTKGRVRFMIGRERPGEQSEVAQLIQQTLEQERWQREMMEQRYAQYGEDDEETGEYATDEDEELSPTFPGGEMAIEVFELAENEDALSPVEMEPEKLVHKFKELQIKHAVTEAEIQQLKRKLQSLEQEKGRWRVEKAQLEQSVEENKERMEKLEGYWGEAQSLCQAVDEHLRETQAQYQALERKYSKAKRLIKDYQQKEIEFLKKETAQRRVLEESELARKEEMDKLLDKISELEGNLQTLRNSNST

B1: SAPAP3 (protein, UniProt Q6PFD5 1-977)
chain: MRGYHGDRGSHPRPARFADQQHMDVGPAARAPYLLGSREAFSTEPRFCAPRAGLGHLSPEGPLSLSEGPSSVGPEGGPGGVGAGGGSSTFPRMYPGQGPFDTCEDCVGHPQGKGATRLPPTLLDQFEKQLPVQQDGFHTLPYQRGPAGPGPGPGSGAAPEARSESPSRIRHLVHSVQKLFAKSHSLEAPGKRDYNGPKADGRGSSGGDSYSGPGSGGTPTSHHHHHHHHHHHHQSRHGKRSKSKDRKGDGRHQTKATGWWSSDDNLDSDSGFLGGRPPGEPGGPFCLDAPDGSYRDLSFKGRSGGSEGRCLACTGMSMSLDGQSVKRSAWHTMMVSQGRDGYPGAGPGKGLLGPETKAKARTYHYLQVPQDDWGGYPTGGKDGEIPCRRMRSGSYIKAMGDEESGDSDGSPKTSPKALARRFASRRSSSVDTARINCCVPPRIHPRSSIPGYSRSLTTGQLSEEFNQQLEAVCGSVFGELESQAVDALDLPGCFRMRSHSYLRAIQAGCSQDDDCLPLLAAPASVSGRPGSSFNFRKAPPPIPPGSQAPPRISITAQSSTDSAHESFTAAEGPARRCSSADGLDGPTMGARTLELAPVPPRASPKPPTLIIKTIPGREELRSLARQRKWRPSIGVQVETISDSDTENRSRREFHSIGVQVEEDKRRARFKRSNSVTAGVQADLELEGLAGLATVATEDKALQFGRSFQRHASEPQPGPRAPTYSVFRTVHTQGQWAYREGYPLPYEPPATDGSPGPTPVPAPGPGSGRRDSWMERGSRSLPDSGRTSPCPRDGEWFIKMLRAEVEKLEHWCQQMEREAEDYELPEEILEKIRSAVGSTQLLLSQKVQQFFRLCQQSLDPTAFPVPTFQDLAGFWDLLQLSIEDVTLKFLELQQLKANSWKLLEPKEEKKVPPPIPKKPSRGRGVPVKERSLDSVDRQRQEARKRLLAAKRAASFRHSSATESADSIEIYIPEAQTRL
  binding: binds

From paper PMC5467389
